Drawing on paper PMC10155438, this text covers binding for one substance.

Protein sequences, listed by entry. Tags and fused reporters are not part of them.
UniProt P42224: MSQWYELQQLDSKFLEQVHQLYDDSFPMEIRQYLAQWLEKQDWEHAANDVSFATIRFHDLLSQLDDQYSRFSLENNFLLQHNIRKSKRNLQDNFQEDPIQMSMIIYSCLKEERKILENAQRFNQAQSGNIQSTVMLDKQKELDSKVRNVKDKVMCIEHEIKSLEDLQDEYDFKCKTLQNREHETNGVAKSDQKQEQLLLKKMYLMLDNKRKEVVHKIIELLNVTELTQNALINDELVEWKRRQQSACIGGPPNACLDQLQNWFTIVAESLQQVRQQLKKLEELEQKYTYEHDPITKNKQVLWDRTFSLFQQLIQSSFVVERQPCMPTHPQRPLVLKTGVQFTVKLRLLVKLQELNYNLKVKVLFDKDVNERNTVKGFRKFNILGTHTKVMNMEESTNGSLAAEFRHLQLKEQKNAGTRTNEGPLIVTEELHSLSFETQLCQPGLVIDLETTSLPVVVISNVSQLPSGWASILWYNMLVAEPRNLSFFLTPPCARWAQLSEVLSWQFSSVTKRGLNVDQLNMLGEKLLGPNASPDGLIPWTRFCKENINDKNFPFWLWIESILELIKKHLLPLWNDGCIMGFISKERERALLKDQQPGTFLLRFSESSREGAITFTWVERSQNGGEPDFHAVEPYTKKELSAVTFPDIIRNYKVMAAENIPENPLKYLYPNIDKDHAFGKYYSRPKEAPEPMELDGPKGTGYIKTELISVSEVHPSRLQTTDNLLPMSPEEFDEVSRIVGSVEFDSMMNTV
UniProt P14618: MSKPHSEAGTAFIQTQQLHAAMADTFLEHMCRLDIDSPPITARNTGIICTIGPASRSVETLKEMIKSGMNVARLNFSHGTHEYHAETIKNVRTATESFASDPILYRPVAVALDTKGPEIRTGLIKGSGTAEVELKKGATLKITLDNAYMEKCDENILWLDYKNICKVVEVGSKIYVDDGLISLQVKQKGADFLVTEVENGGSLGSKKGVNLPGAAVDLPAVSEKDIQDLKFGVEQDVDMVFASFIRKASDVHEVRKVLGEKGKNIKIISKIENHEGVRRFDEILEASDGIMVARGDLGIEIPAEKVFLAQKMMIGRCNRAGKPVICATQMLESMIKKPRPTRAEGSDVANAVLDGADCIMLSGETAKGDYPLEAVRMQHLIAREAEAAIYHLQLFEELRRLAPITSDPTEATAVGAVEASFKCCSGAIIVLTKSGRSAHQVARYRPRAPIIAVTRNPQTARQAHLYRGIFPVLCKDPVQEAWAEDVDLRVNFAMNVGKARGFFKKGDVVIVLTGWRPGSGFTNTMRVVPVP

No constants are given. Whether binding was seen depends on the method and setting. In cells and extracts the contact can be indirect. Some results given as binding are weak or reduced against the parent protein; the word gives no strength.

The test has as its target signal transducer and activator of transcription 1 (human (endogenous in HL-60)) (UniProt P42224). Kind of test: co-IP; IP/CoIP kit (Absin); endogenous proteins of dHL-60 cells untreated, treated with LPS (1ug/ml) for 6 h, pretreated with DASA-58 (20uM) 0.5 h before LPS, or treated with DASA-58 alone; antibodies against PKM2 (Cell Signaling Technology) and STAT1 (Abcam), IgG isotype control; which antibody precipitated is not stated.

With “pyruvate kinase M2 (from UniProt P14618 1-531) (enzyme)”, the binding result was “binds”.
